Data: paper doi:10.1101/2025.03.09.642134
Read-outs that look alike come from different tables or passages of the source. Results are given in words; binding and its absence hold for the method and conditions named. In cells and extracts the contact can be indirect. A yes stands for co-enrichment or nearness to the bait. Other partners may have been found.

Key:
Assay in all cases: affinity purification with mass spectrometry
[1] = biological target: NP (influenza A virus nucleoprotein) (influenza A virus A/WSN/1933 (H1N1)) (UniProt P15682)
[2] = biological target: T1, NONO (paraspeckle core protein, DBHS family) (human (endogenous in A549)) (UniProt Q15233)
T1 sequence: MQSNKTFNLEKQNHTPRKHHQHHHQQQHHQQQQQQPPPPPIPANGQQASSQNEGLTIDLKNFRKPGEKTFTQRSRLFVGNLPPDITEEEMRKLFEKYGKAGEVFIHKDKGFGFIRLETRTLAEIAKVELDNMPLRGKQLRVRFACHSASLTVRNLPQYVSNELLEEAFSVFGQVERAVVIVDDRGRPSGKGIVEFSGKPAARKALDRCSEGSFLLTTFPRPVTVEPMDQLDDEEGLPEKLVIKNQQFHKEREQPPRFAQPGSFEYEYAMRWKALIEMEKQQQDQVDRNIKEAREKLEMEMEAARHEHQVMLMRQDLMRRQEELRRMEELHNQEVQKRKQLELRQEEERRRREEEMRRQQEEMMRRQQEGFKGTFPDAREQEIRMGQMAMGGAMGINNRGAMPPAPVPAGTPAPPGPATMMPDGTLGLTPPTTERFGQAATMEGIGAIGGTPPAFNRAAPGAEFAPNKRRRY

[3] = substrate: NP (influenza A virus nucleoprotein) (influenza A virus A/WSN/1933 (H1N1)) (UniProt P15682); remark: listed apart in the source

For HNRNPK (from UniProt P61978 1-463), which binding [1] is on record?
The binding was “binds”.

Which binding [2] does the source give for “NP (influenza A virus nucleoprotein) (from UniProt P15682 1-498)” here?
The binding was “binds”.

B1: MATR3 (protein, UniProt P43243 1-847)
chain: MSKSFQQSSLSRDSQGHGRDLSAAGIGLLAAATQSLSMPASLGRMNQGTARLASLMNLGMSSSLNQQGAHSALSSASTSSHNLQSIFNIGSRGPLPLSSQHRGDADQASNILASFGLSARDLDELSRYPEDKITPENLPQILLQLKRRRTEEGPTLSYGRDGRSATREPPYRVPRDDWEEKRHFRRDSFDDRGPSLNPVLDYDHGSRSQESGYYDRMDYEDDRLRDGERCRDDSFFGETSHNYHKFDSEYERMGRGPGPLQERSLFEKKRGAPPSSNIEDFHGLLPKGYPHLCSICDLPVHSNKEWSQHINGASHSRRCQLLLEIYPEWNPDNDTGHTMGDPFMLQQSTNPAPGILGPPPPSFHLGGPAVGPRGNLGAGNGNLQGPRHMQKGRVETSRVVHIMDFQRGKNLRYQLLQLVEPFGVISNHLILNKINEAFIEMATTEDAQAAVDYYTTTPALVFGKPVRVHLSQKYKRIKKPEGKPDQKFDQKQELGRVIHLSNLPHSGYSDSAVLKLAEPYGKIKNYILMRMKSQAFIEMETREDAMAMVDHCLKKALWFQGRCVKVDLSEKYKKLVLRIPNRGIDLLKKDKSRKRSYSPDGKESPSDKKSKTDGSQKTESSTEGKEQEEKSGEDGEKDTKDDQTEQEPNMLLESEDELLVDEEEAAALLESGSSVGDETDLANLGDVASDGKKEPSDKAVKKDGSASAAAKKKLKKVDKIEELDQENEAALENGIKNEENTEPGAESSENADDPNKDTSENADGQSDENKDDYTIPDEYRIGPYQPNVPVGIDYVIPKTGFYCKLCSLFYTNEEVAKNTHCSSLPHYQKLKKFLNKLAEERRQKKET
How did the binding [3] turn out when B1 was run?
The binding was “binds”.
